From doi:10.1101/2025.06.16.659844
These are yes or no findings as the source states them, for the method shown. For some assays here: Binding seen in cells or lysates may run through a third protein. Some results given as binding are weak or reduced against the parent protein; the word gives no strength.

Sequences of proteins named here, by UniProt entry; tags and fusion partners are left off. A change or cut given only in a name is not applied to a line headed by its entry. Residues count along the entry.
UniProt P61960: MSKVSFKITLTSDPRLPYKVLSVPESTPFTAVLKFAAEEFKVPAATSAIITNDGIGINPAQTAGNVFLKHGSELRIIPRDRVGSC
UFM1: residues 2-83 of P61960
UniProt Q9H9Q4: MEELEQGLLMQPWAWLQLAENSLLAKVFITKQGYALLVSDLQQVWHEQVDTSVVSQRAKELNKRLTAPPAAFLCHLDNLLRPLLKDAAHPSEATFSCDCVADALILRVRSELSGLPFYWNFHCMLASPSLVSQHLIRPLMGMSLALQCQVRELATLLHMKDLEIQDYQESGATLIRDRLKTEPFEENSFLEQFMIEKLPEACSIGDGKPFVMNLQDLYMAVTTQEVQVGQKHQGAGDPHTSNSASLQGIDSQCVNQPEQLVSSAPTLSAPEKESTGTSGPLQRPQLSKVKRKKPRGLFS

Columns and labels:
[1] = biological target: UFM1 (UniProt P61960); experiment: NMR titration
[2] = biological target: GST-UFM1 (UniProt P61960); experiment: pull-down

Row | binding [1] | binding [2] | Substance
1 | binds |  | recombinant XLF (from UniProt Q9H9Q4 1-299)
2 |  | binds | GFP-tagged XLF (from UniProt Q9H9Q4 1-299)
